# Library screening results

Protein sequences, listed by entry. Tags and fused reporters are not part of them.
UniProt E9BF75, entry or part of it: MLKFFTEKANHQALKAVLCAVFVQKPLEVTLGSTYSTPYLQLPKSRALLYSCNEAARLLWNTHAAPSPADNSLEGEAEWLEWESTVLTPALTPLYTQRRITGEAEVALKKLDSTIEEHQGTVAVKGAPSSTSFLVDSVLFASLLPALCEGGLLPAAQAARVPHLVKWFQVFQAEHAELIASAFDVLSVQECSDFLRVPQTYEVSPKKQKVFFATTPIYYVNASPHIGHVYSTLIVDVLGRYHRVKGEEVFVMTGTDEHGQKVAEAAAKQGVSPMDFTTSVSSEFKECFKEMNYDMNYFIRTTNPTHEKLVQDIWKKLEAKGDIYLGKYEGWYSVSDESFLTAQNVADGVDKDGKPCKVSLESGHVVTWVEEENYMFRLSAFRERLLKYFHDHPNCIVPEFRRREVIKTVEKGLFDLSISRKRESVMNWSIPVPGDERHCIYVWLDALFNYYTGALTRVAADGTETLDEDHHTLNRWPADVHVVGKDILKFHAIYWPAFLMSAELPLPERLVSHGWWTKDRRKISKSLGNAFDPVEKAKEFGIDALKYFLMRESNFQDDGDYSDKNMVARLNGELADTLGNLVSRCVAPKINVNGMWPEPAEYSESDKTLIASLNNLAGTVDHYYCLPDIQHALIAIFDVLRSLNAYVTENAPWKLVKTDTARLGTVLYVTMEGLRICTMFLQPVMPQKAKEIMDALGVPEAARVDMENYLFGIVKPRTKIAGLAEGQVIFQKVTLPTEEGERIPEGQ

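Primary screen of methionyl-tRNA synthetase; the read-out is not stated. Target: Methionyl-tRNA synthetase (putative), Leishmania donovani (UniProt E9BF75). The test concentration is not given. Values are per cent inhibition. About 68,000 compounds were tested under these conditions; 0.035% (about 24) showed 50% or more at least once.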

Results are percentages, as filed.
The controls that fix the scale are not given in the record; negative values are as filed.
Compounds were drawn at random from those tested, without regard to their results.

| structure | inhibition |
|---|---|
| `COC(=O)c1ccc(N2CCN(C(=O)c3ccc(=O)n(C)c3)CC2)cc1` | 9.091 |
| `CN(c1ncc(S(N)(=O)=O)s1)C1CCC1` | 5.775 |
| `Cc1cc(CCC(=O)N(C)C)nc(C2CCCCN2)n1` (stereo not drawn) | 13.56 |
| `COc1cc(N2C[C@H]3CCC[C@@H](CN(C)C)[C@H]3C2)ncn1` | 4.667 |
| `CN1CCCN(C(=O)c2cc(-c3cc[nH]n3)n3ccccc23)CC1` | -3.258 |
| `O=C(c1cnccn1)N1CCCC2(COCCN(CC3CC3)C2)C1` (stereo not drawn) | 15.02 |
| `CCN(Cc1nc2c(cnn2C)c(=O)[nH]1)c1cc(C)cc(C)c1` | 6.017 |
| `CC(NC(=O)Cc1ccccc1F)(C(N)=O)c1cccc(Cl)c1` (stereo not drawn) | 19.52 |
| `Cc1cc(C(=O)Nc2ccn(CCCN3CCCC3)n2)no1` | 15.59 |
| `CC(NC(=O)c1cccs1)C(=O)NS(=O)(=O)c1cccc(C#N)c1` (stereo not drawn) | 17.87 |
| `O=C(NCc1ccccn1)Nc1cc(C(F)(F)F)c[nH]c1=O` | 11.11 |
| `Cc1noc(C2CCCN(C(=O)c3cc(Cl)c(Cl)n3C)C2)n1` (stereo not drawn) | 6.494 |
| `COCCN1CC(C(=O)Nc2ccc3c(c2)CCC(=O)N3C)CC1=O` (stereo not drawn) | 14.62 |
| `CN1CCN(S(=O)(=O)c2ccccc2)Cc2cccnc21` | 5.865 |
| `Cc1nn(CCC(=O)N(C)Cc2c(Cl)cnn2C)cc1Br` | 2.059 |
| `O=C(NC1CCc2cc(Cl)ccc21)C1CCN(C(=O)C2CC2)CC1` (stereo not drawn) | 20.1 |
| `CC(=O)N(C)CCCc1cc(-c2ccccc2)no1` | 7.937 |
| `CC(C)n1cc(N2Cc3nc(N4CCOCC4)ncc3C2=O)cn1` | -25.88 |
| `COCCCNC(=O)CN(C)C(=O)c1ccc(OC)cc1O` | 15.56 |
| `CCC1C=CCN1C(=O)c1cc(COc2ccccc2OC)[nH]n1` (stereo not drawn) | 19.06 |
| `Cc1ccc(-c2cc(C(=O)N(C)Cc3noc4c3CCCC4)[nH]n2)s1` | 15.48 |
| `O=C(C1CCC1)N1CCC2(COCc3cnc(-c4cccnc4)nc32)C1` (stereo not drawn) | 11.83 |
| `Cc1cc(CC(C)Nc2nc(-c3cccnc3)nc3c2CNC3)[nH]n1` (stereo not drawn) | 16.67 |
| `O=C(c1ccc(N2CCCC2)nn1)N1CCCC(n2ccnc2)C1` (stereo not drawn) | 20.57 |
| `CCS(=O)(=O)N1CCC2(CN(c3ccsc3)C(=O)CN2C)C1` (stereo not drawn) | 13.77 |
| `Cc1nnsc1C(=O)N1CC[C@H](c2ccccc2)[C@@H]2[C@H]1CCCCN2C` | 11.98 |
| `CCC(C)(NCc1ncc(C(C)C)o1)c1nccs1` (stereo not drawn) | 7.971 |
| `Cc1csc(CN(C)C2CCN(c3sccc3C#N)C2=O)n1` (stereo not drawn) | 4.658 |
| `O=C(c1ccnc(C2CCNCC2)c1)N1CCCC1` | 6.604 |
| `c1ccc2nc(N3CCOC(Cn4cncn4)C3)cnc2c1` (stereo not drawn) | 23.38 |
| `CCS(=O)(=O)CCNC(=O)c1cc2n(n1)CCCO2` | 17.43 |
| `COc1ccc(CN2CCC3(CC2)CCN(c2ncccn2)CC3)cc1` | 11.11 |
| `Cc1cc(C)nc(NCc2nnc3n2CCCCC3)n1` | 8.163 |
| `Cc1noc(C)c1CS(=O)(=O)CC(=O)N(C)Cc1cccc(F)c1` | 13.77 |
| `O=C(C1CCN(c2ncnc3cccc(F)c23)CC1)N1CCCC1` | 11.02 |
| `CCn1ncc2c1C(COC)N(C(=O)Cc1cccs1)CC2` (stereo not drawn) | 14.99 |
| `CCN(C)C[C@@H]1CN(S(=O)(=O)c2ccc(C#N)cc2)C[C@@H]1CO` | 9.358 |
| `Cn1nnnc1SC1CCc2ccccc2NC1=O` (stereo not drawn) | 10.2 |
| `COc1ccc(S(=O)(=O)Nc2cnc(N(C)C)nc2)cc1` | 13.28 |
| `CC1COCCN1Cc1nc(Cc2ccccc2)no1` (stereo not drawn) | 15.92 |
| `c1cc(CN2CC[C@H]3C[C@H](c4nc(C5CC5)cs4)O[C@@H]3C2)ccn1` | 8.065 |
| `Cc1cccc(NC(=O)NC2CCC3(C2)OCCO3)c1Cl` (stereo not drawn) | 13.04 |
| `c1ccc(CNc2ccccc2N2CCCC2)nc1` | 19.16 |
| `CN(Cc1cnccn1)C(=O)c1ccnc(OC2CCC2)c1` | 7.609 |
| `CN1CCOC(CN(C(=O)CC2CCCC2)c2nccs2)C1` (stereo not drawn) | -1.587 |
| `N#CCCn1nc(C(F)(F)F)c2c1CCC2` | 10.54 |
| `Cc1ccc(CNC2CCCc3c2cnn3C)s1` (stereo not drawn) | 16.67 |
| `CC(O)c1cn(C2CCN(C(=O)C3(C)CCN(C)CC3)CC2)nn1` (stereo not drawn) | 7.035 |
| `Fc1cccc(CCN(c2ccc3nnnn3n2)C2CC2)c1` | 7.459 |
| `CC(C)[C@H]1CN(CC2CCC2)C[C@@H]1NC(=O)c1ccc(=O)[nH]c1` | 4.348 |
| `CS(=O)(=O)N1CCC(C(=O)NCCCn2cc(Cl)cn2)CC1` | 16.25 |
| `O=C(N1CCCC(n2cncn2)C1)C1(c2ccccc2F)CCCC1` (stereo not drawn) | 13.13 |
| `CC(C)CN1CCC(c2nc3c([nH]2)CC(C)(C)CNC3=O)C1` (stereo not drawn) | 14.13 |
| `CC(NC(=O)Cc1ccon1)c1ccc(OCC2CC2)c(F)c1` (stereo not drawn) | 9.922 |
| `CCOc1ccc(NC2CCN(CC(F)(F)F)C2=O)cc1C` (stereo not drawn) | 18.9 |
| `O=C(NCc1nnc2ccccn12)N1CCOC(c2ccsc2)C1` (stereo not drawn) | 16.15 |
| `OCC1(CNC2CCc3cc4c(cc32)OCCO4)CC1` (stereo not drawn) | 13.06 |
| `Cn1cc(C(=O)N2CC[C@@H]3[C@@H]2CCN3Cc2cccnc2)cn1` | 15.82 |
| `Cc1nn(C)c(N(C)C)c1CNCc1cccnc1-n1cncn1` | 10.42 |
| `Cn1ncc2c1NC(=O)CSC2c1ccc2c(c1)OCO2` (stereo not drawn) | 9.065 |
| `COCc1cc(O)nc(C2CCCN(Cc3cccc(Cl)c3Cl)C2)n1` (stereo not drawn) | 11.06 |
| `CCN(C)C[C@@H]1CN(S(=O)(=O)c2cccc(Cl)c2)C[C@@H]1CO` | 11.5 |
| `COc1ccc(C(=O)NC2CC2)c(OC2CCN(C3CCC3)CC2)c1` | 14.53 |
| `CC(C)N(C(=O)Cn1cc(Cl)cn1)c1ccccc1` | 17.04 |
| `O=C(c1ccno1)N1CC2(CCC(C(=O)N3CCCC3)O2)C1` (stereo not drawn) | 8.696 |
| `Cc1nc(C)n(CC2CCCN2c2ccnc(-c3ccccc3)n2)n1` (stereo not drawn) | 8.635 |
| `CCOCc1cnc2n1CCN(C(=O)c1ccccc1)C2C` (stereo not drawn) | 1.76 |
| `O=C(NCc1nncn1C1CC1)C1(c2ccc(F)cc2)CCOCC1` | 12.24 |
| `COCC(=O)N1CC[C@H]2N(C)CC[C@@]2(C(=O)Nc2ccccc2)CC1` | 15.27 |
| `Cc1ccc(NC(=O)CNC(C)CN2CCCCC2)c(F)c1` (stereo not drawn) | 2.308 |
| `COc1cc(N2CCC3(CC2)CC(N2CCOCC2)CO3)ncn1` (stereo not drawn) | 6.111 |
| `O=C(Nc1ccccc1)N1CCc2nc(C(=O)N3CCCC3)sc2CC1` | 3.825 |
| `O=C(NC1CCCC1)c1nc2c(o1)CN(CCO)C2` | 24.31 |
| `Cc1csc2c(=O)n3c(nc12)CCN(C(=O)c1ccnn1C)CC3` | 12.47 |
| `Cc1ccc(N2CCC3(CCN(C(=O)c4ccsc4)C3)CC2)nn1` | 6.25 |
| `O=C(NCCO)Nc1c(F)cc(F)cc1-c1ccccc1` | 10.57 |
| `COc1cc(C)nc(N2CCN(C(=O)c3ccc(Cl)o3)CC2)n1` | 3.922 |
| `COc1ccc(C(O)CN2CC(n3nc(C)cc3C)C2)cc1` (stereo not drawn) | 29.52 |
| `CCOc1ccc(C(=O)Nc2c(C)nc3ccc(Cl)cn3c2=O)cc1` | 5.248 |
| `CN(Cc1cc(C2CC2)[nH]n1)C(=O)C(c1cccnc1)N1CCCC1` (stereo not drawn) | 2.452 |
| `CC(C)(C)c1n[nH]c(C2CN(C(=O)c3csnn3)CCO2)n1` (stereo not drawn) | 10.56 |
| `CCN(CC)C(=O)c1ccc(NC(=O)CNc2ccc(Br)cc2F)cc1` | 15.49 |
| `O=C(NCCNC(=O)N1CCC(c2ccccc2)C1)C1CC1` (stereo not drawn) | 11.23 |
| `COc1ccc2c(CN3CCN(Cc4cccc(F)c4)CC3)n[nH]c2c1` | 21.94 |
| `CC(C)n1ccnc1C1CCN(Cc2ccc(C(F)(F)F)c(F)c2)CC1` | 9.537 |
| `Cc1cc(NC(=O)N2CCOCC2)nn1-c1cccc(Cl)c1` | 0.6211 |
| `COc1ccc(C2CCCN2C(=O)Nc2ccc(OC)nc2)cc1` (stereo not drawn) | 12.03 |
| `O=C(CN1CCCC(c2ccn[nH]2)C1)N1CCCc2ccccc21` (stereo not drawn) | 1.397 |

Repeated from the top, 6 entries:

| structure | inhibition |
|---|---|
| `COC(=O)c1ccc(N2CCN(C(=O)c3ccc(=O)n(C)c3)CC2)cc1` | 9.091 |
| `CN(c1ncc(S(N)(=O)=O)s1)C1CCC1` | 5.775 |
| `Cc1cc(CCC(=O)N(C)C)nc(C2CCCCN2)n1` (stereo not drawn) | 13.56 |
| `COc1cc(N2C[C@H]3CCC[C@@H](CN(C)C)[C@H]3C2)ncn1` | 4.667 |
| `CN1CCCN(C(=O)c2cc(-c3cc[nH]n3)n3ccccc23)CC1` | -3.258 |
| `O=C(c1cnccn1)N1CCCC2(COCCN(CC3CC3)C2)C1` (stereo not drawn) | 15.02 |

From ChEMBL document CHEMBL3988442, “University of Dundee, Small-Polar-MMV Screening Library” (2021).